Results reported in the supplement of paper PMC12823440, “Inhibitors supercharge kinase turnover through native proteolytic circuits” (Nature, 2025).
Some of the results follow. The calls rarely recur for the same compound in another form.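 Kinases were expressed as nanoluciferase fusions in K562 cells and luminescence was read every 4 h between 2 and 18 h as percent of control, DMSO set to 100% and a positive control to 0%. A time point counts as decreased when the signal drops significantly (2 sigma). The hit call is the authors' own, does not follow from the count of time points alone, and its rule is not shown.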

Amino acid sequences for entries named in this document (tags omitted). A change or cut given only in a name is not applied to a line headed by its entry.
UniProt P50613: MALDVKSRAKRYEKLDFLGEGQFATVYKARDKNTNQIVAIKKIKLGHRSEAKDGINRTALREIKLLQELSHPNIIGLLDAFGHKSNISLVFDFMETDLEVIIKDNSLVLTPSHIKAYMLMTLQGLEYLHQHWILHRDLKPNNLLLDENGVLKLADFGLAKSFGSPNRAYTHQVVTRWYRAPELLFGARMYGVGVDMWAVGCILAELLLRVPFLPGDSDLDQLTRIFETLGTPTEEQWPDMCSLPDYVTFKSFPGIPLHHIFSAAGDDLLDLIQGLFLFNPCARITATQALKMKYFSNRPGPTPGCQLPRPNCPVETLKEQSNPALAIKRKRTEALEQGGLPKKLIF
UniProt P50750, whole entry: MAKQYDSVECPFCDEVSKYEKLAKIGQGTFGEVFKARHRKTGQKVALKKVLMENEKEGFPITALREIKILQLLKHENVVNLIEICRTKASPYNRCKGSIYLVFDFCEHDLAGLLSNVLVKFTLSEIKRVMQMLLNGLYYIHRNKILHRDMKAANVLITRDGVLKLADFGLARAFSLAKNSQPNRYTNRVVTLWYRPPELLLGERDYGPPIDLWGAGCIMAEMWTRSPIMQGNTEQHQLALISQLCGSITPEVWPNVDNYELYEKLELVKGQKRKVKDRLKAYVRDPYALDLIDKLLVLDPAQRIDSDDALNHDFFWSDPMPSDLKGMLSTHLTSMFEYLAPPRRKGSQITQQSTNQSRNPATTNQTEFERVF
UniProt O96017, whole entry: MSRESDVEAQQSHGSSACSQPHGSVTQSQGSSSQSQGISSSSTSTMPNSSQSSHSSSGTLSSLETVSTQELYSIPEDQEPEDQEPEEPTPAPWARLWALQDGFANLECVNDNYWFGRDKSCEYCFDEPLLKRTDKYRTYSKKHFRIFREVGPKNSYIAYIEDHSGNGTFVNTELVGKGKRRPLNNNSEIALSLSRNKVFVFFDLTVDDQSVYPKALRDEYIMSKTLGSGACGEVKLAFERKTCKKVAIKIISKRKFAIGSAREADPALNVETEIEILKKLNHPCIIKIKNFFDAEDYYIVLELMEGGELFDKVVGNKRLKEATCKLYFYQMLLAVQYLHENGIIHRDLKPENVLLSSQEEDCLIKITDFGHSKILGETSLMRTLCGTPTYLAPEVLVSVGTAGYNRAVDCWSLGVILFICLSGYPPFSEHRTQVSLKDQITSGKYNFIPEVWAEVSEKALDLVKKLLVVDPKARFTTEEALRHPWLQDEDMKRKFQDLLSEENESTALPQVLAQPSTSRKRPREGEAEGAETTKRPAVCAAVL
UniProt P07333, whole entry: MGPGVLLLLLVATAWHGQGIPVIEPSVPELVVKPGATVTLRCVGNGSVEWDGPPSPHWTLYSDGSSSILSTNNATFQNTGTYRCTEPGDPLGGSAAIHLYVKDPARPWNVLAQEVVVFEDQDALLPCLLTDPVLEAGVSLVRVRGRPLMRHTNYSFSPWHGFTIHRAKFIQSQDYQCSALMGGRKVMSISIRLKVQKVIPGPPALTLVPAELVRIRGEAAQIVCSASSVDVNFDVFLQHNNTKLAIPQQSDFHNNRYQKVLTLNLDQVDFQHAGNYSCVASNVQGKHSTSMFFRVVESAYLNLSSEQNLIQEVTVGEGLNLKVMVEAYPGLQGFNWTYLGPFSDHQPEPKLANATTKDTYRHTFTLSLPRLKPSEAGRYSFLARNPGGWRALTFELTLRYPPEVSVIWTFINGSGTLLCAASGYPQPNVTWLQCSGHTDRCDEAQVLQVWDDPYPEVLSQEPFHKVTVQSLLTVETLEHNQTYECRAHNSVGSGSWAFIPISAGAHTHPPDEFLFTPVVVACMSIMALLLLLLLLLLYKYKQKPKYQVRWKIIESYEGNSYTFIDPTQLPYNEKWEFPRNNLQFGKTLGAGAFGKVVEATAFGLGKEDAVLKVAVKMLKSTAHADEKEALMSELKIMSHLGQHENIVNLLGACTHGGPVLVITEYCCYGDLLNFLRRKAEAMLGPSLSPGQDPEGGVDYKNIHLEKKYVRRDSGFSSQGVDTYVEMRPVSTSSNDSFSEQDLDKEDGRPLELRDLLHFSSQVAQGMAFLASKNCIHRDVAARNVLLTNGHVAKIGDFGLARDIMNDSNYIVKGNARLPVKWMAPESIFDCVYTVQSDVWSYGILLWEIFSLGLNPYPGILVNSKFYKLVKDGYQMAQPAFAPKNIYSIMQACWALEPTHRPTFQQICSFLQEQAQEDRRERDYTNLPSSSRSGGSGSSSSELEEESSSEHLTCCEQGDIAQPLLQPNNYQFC
UniProt P41240: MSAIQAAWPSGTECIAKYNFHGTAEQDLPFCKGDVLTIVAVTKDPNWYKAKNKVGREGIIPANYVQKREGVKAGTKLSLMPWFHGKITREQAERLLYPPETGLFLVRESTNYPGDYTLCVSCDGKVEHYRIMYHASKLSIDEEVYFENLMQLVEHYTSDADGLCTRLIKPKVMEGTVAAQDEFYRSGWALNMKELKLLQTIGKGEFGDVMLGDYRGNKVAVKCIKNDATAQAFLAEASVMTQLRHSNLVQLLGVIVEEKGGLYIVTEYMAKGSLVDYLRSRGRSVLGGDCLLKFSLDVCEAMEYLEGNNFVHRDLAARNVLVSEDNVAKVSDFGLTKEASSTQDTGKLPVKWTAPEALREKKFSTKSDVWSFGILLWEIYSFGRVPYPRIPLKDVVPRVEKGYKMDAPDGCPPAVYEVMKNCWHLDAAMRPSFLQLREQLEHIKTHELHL
UniProt P48729: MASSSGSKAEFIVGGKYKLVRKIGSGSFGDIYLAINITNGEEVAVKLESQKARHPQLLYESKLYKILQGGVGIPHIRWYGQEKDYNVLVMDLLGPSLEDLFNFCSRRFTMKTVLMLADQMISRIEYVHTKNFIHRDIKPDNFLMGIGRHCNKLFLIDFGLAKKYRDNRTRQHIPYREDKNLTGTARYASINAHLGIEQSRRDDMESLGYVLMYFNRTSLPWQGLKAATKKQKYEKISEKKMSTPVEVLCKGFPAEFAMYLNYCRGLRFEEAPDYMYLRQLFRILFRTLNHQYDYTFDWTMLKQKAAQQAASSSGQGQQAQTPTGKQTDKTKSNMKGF
UniProt P48730: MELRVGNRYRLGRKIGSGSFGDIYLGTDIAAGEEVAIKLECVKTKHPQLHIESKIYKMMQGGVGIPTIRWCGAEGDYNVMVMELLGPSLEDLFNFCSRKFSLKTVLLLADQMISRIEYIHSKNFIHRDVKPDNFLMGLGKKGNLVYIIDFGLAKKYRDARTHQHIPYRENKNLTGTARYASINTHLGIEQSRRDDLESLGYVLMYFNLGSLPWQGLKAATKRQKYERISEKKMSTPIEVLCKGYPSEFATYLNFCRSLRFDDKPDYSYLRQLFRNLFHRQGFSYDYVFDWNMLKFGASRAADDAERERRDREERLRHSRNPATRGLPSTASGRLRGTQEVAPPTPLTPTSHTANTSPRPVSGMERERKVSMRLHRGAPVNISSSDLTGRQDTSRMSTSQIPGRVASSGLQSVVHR
UniProt Q08345: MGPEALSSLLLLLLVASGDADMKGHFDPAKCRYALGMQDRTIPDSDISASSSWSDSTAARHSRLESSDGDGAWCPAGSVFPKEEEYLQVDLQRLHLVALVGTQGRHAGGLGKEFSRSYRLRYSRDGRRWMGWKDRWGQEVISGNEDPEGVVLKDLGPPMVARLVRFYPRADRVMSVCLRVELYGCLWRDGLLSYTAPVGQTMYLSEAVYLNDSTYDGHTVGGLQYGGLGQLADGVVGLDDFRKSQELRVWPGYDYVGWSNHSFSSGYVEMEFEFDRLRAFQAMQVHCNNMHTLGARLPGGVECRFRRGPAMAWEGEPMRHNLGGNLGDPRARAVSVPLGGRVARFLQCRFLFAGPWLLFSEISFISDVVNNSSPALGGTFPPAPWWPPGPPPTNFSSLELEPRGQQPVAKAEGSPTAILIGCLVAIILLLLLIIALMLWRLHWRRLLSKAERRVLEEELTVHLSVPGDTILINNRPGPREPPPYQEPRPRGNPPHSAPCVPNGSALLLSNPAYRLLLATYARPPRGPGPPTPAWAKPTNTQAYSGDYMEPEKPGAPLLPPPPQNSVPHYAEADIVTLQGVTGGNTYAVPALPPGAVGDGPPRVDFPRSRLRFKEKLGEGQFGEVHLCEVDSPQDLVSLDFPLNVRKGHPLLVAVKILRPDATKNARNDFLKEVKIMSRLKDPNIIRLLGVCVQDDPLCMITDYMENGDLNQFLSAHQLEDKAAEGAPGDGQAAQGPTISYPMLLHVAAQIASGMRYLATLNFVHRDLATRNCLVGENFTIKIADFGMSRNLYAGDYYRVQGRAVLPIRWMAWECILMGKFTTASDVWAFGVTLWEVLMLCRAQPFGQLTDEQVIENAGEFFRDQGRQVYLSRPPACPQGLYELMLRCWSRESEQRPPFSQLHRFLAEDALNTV
UniProt Q9Y463, whole entry, looked up: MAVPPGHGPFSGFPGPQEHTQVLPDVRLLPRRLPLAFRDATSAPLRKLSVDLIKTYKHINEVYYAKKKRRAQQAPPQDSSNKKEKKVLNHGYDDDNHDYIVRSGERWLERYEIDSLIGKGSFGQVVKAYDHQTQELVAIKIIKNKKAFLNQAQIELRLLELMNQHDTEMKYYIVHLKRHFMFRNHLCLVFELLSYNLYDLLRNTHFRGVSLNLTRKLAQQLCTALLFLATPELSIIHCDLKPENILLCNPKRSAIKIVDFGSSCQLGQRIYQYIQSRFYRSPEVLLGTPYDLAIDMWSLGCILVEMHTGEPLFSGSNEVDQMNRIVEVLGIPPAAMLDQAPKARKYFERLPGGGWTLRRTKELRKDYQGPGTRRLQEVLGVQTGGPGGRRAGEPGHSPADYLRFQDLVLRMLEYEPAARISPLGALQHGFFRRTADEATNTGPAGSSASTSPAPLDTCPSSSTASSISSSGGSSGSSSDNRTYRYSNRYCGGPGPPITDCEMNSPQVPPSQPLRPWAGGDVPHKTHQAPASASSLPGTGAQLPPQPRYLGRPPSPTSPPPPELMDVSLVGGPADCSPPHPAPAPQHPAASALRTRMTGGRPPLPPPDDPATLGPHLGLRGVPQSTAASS
UniProt Q92630: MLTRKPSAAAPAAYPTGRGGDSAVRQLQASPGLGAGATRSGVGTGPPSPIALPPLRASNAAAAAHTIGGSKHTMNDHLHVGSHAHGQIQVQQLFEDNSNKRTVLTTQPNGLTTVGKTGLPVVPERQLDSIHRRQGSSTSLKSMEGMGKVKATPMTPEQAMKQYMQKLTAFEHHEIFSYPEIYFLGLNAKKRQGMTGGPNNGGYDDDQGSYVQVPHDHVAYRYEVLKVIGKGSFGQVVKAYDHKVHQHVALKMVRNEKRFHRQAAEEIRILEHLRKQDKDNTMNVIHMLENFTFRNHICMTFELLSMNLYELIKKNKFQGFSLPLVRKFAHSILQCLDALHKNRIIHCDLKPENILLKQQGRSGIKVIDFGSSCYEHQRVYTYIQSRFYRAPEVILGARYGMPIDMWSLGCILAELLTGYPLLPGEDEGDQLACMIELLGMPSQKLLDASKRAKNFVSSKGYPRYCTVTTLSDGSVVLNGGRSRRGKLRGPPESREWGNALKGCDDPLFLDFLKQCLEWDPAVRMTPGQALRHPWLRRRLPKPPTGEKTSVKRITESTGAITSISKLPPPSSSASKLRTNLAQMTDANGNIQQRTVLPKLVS

Key:
Assay in all cases: kinase-Nluc reporter destabilization hit call (1 = scored as downregulated) (binary); higher = compound decreases kinase abundance
Conditions in all cases: K562; 2-18 h
[1] = target: CDK7 (UniProt P50613)
[2] = target: CDK9 (UniProt P50750)
[3] = target: CHEK2 (UniProt O96017)
[4] = target: CSF1R (UniProt P07333)
[5] = target: CSK (UniProt P41240)
[6] = target: CSNK1A1 (UniProt P48729)
[7] = target: CSNK1D (UniProt P48730)
[8] = target: DDR1 (UniProt Q08345)
[9] = target: DYRK1B (UniProt Q9Y463)
[10] = target: DYRK2 (UniProt Q92630)

| Structure (SMILES) | kinase-Nluc reporter destabilization hit call [1] | kinase-Nluc reporter destabilization hit call [2] | kinase-Nluc reporter destabilization hit call [3] | kinase-Nluc reporter destabilization hit call [4] | kinase-Nluc reporter destabilization hit call [5] | kinase-Nluc reporter destabilization hit call [6] | kinase-Nluc reporter destabilization hit call [7] | kinase-Nluc reporter destabilization hit call [8] | kinase-Nluc reporter destabilization hit call [9] | kinase-Nluc reporter destabilization hit call [10] |
| --- | --- | --- | --- | --- | --- | --- | --- | --- | --- | --- |
| Cc1ncc(-c2ccnc(Nc3ccc(S(C)(=O)=O)cc3)n2)n1C(C)C (2.5 µM) | inactive: 0 | inactive: 0 | inactive: 0 | inactive: 0 | inactive: 0 | inactive: 0 | inactive: 0 | inactive: 0 | inactive: 0 | inactive: 0 |
| COc1c(CC=C(C)C)c(O)cc2oc(=O)c(-c3ccc(O)cc3O)cc12 [Glycycoumarin] (10 µM) | inactive: 0 | inactive: 0 | inactive: 0 | inactive: 0 | inactive: 0 | inactive: 0 | inactive: 0 | inactive: 0 | inactive: 0 | inactive: 0 |
| CCN1CCN(Cc2ccc(C(=O)Nc3ccc(C)c(Oc4ccc5c(c4)CC(=O)N5)c3)cc2C(F)(F)F)CC1 (2.5 µM) | inactive: 0 | inactive: 0 | inactive: 0 | inactive: 0 | inactive: 0 | inactive: 0 | inactive: 0 | – | inactive: 0 | inactive: 0 |
| COc1ccc2c(NC(=O)Nc3cccc(C(F)(F)F)n3)ccnc2c1 (10 µM) | inactive: 0 | inactive: 0 | inactive: 0 | inactive: 0 | inactive: 0 | – | – | inactive: 0 | inactive: 0 | inactive: 0 |
| O=c1c(O)c(-c2ccc(O)c(O)c2)oc2cc(O)cc(O)c12 [Quercetin (dihydrate)] (10 µM) | inactive: 0 | inactive: 0 | inactive: 0 | inactive: 0 | inactive: 0 | inactive: 0 | inactive: 0 | inactive: 0 | inactive: 0 | inactive: 0 |
| COc1ccc(COc2ccc(Cc3cnc(N)nc3N)cc2OC)cc1 (10 µM) | inactive: 0 | inactive: 0 | inactive: 0 | – | inactive: 0 | inactive: 0 | inactive: 0 | inactive: 0 | inactive: 0 | inactive: 0 |
| CCc1nc(-c2cccc(C)c2)c(-c2ccnc(NC(=O)c3ccccc3)c2)s1 (10 µM) | inactive: 0 | inactive: 0 | inactive: 0 | inactive: 0 | inactive: 0 | – | inactive: 0 | inactive: 0 | inactive: 0 | inactive: 0 |
| CN1CCN(c2ccc(C(=O)Nc3n[nH]c4ccc(Cc5cc(F)cc(F)c5)cc34)c(NC3CCOCC3)c2)CC1 [Entrectinib] (2.5 µM) | inactive: 0 | inactive: 0 | inactive: 0 | inactive: 0 | inactive: 0 | – | inactive: 0 | inactive: 0 | inactive: 0 | inactive: 0 |
| CC(=O)NCC(=O)N1[C@@H]2CC[C@H]1c1ccc(Nc3ncc(C(F)(F)F)c(NC4CCC4)n3)cc12 (2.5 µM) | active: 1 | inactive: 0 | inactive: 0 | inactive: 0 | inactive: 0 | inactive: 0 | – | inactive: 0 | inactive: 0 | inactive: 0 |
| O=C(Nc1cc(C(F)(F)F)ccc1N1CCN(Cc2ccccn2)CC1)c1ccc(-c2ccncc2)o1 (10 µM) | inactive: 0 | inactive: 0 | inactive: 0 | inactive: 0 | inactive: 0 | inactive: 0 | inactive: 0 | inactive: 0 | inactive: 0 | inactive: 0 |
| Cc1cc(C)c(/C=C2\C(=O)Nc3ccccc32)[nH]1 [Semaxinib] (10 µM) | inactive: 0 | inactive: 0 | inactive: 0 | inactive: 0 | inactive: 0 | – | inactive: 0 | inactive: 0 | inactive: 0 | inactive: 0 |
